Measured values reported in patent publication US20100190832A1, “Mechanism-based inhibitors of transthyretin amyloidosis: studies with biphenyl ethers and structural templates” (NATIONAL INSTITUTE OF IMMUNOLOGY., priority 2008, published 2010).
Some results were stated once for a whole list of compounds, not compound by compound.

Assays:
Neuro2a cells = test: Cell culture and cytotoxicity inhibition assay (MTT); conditions: compound 50 μM alone
TTR = target: T1, TTR (Homo sapiens, UniProt P02766); test: Dissociation constant by fluorescence titration (Adair equation, two sites); assay type: binding; conditions: pH 4.4, text
T1 construct: made in house
Description: The experiments were conducted at 25° C. After 1 h, the samples were diluted with 0.5 mL of 200 mM sodium acetate buffer pH 4.4 containing 100 mM KCl and 1 mM EDTA, vortexed, and incubated at 37° C. for 72 h. […] The stoichiometry of the binding of the inhibitors was determined by HPLC as described by Green et al., N. S. Palaninathan, S, L, Sacchettini, J. e. […] Dissociation constant of binding of these compounds to TTR was determined by fluorescence titration, and data were fitted into the Adair equation for two bind mg.
Small aliquots of 1 mM ligands solutions were successively added to the […] in 100 mM sodium acetate buffer pH 4.4 at […] under constant stirring. After each addition sample was left for 2 min. […] Readings were corrected for buffer blank, dilution and inner filter effect. The inner filter effect was corrected by using the following equation,
From the titration data the dissociation constant was determined by fitting data in following Adair equation for two binding sites-

SMILES	effect of compounds alone on survival of Neuro 2A cells (Neuro2a cells)	dissociation constant Kd1 (TTR)
Oc1cc(CCl)ccc1Oc1ccc(Cl)cc1Cl [Compound 3]	no effect	–
COc1cc(CCl)ccc1Oc1ccc(Cl)cc1Cl [Compound 5]	–	nanomolar range
